This note sets out measurements from patent US20090081704A1, “COMPOSITIONS, METHODS AND KITS FOR REAL-TIME ENZYME ASSAYS USING CHARGED MOLECULES” (priority 2004, published 2009).

A short description of this data set: Quenching of hydrophobic molecule fluorescence by added charge-balance molecule (micelle formation). The class given is physicochemical.

B1: MPB: charge-balance molecule, Myelin Basic Protein (Upstate USA, Inc. cat. no: 13-104), positively charged (+18) (protein, UniProt P02687 1-169, looked up)
Myelin basic protein: AAQKRPSQRSKYLASASTMDHARHGFLPRHRDTGILDSLGRFFGSDRGAPKRGSGKDGHHAARTTHYGSLPQKAQGHRPQDENPVVHFFKNIVTPRTPPPSQGKGRGLSLSRFSWGAEGQKPGFGYGGRASDYKSAHKGLKGHDAQGTLSKIFKLGGRDSRSGSPMARR
With B1, the “quenching of fluorescence of hydrophobic molecule C16OOOK(Dye2)EEIYGEF-amide” value is, setting by setting: (1:1 molar ratio or above to hydrophobic molecule (10 μM)) “almost complete quenching”; (less than 1:1 molar ratio to hydrophobic molecule (10 μM)) “quenches the fluorescence”.
